In PMC8928223, “The Collagen Receptor Discoidin Domain Receptor 1b Enhances Integrin β1-Mediated Cell Migration by Interacting With Talin and Promoting Rac1 Activation” (Frontiers in Cell and Developmental Biology, 2022):
These are yes or no findings as the source states them, for the method shown. Some entries that bind do so weakly or less than the wild type.

Protein sequences, listed by entry. Tags and fused reporters are not part of them. Residues count along the entry.
UniProt P26039, residues 1-433: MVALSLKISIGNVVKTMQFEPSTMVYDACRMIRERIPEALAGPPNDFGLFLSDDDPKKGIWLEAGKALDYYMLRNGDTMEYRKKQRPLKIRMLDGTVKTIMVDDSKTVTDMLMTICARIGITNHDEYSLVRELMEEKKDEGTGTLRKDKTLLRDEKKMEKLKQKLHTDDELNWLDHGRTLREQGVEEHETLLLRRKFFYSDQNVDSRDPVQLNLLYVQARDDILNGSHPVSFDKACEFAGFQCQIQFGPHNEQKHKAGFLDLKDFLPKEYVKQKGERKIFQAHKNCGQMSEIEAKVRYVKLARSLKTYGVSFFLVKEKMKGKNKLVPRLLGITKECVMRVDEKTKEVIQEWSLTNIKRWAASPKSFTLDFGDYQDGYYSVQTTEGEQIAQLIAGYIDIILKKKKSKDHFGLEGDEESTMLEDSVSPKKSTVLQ

Biological target: talin head domain (THD, a. a. 1-433), HIS-tagged (UniProt P26039)
Assay: ELISA; solid phase binding assay: talin head domain (3 µg/ml) coated on Nunc maxisorp 96 well plates; DDR1 cytoplasmic constructs added at increasing concentrations in 50 mM Tris pH 7.5, 150 mM NaCl, 0.1% BSA, 2 mM DTT, 0.1% Tween 20, overnight at 4°C; bound DDR1 detected with anti-DDR1 antibody; one site saturation fit; both purified

B1: DDR1b cytoplasmic domain (domain or fragment)
chain: WRLHWRRLLSKAERRVLEEELTVHLSVPGDTILINNRPGPREPPPYQEPRPRGNPPHSAPCVPNGSALLLSNPAYRLLLATYARPPRGPGPPTPAWAKPTNTQAYSGDYMEPEKPGAPLLPPPPQNSVPHYAEADIVTLQGVTGGNTYAVPALPPGAVGDGPPRVDFPRSRLRFKEKLGEGQFGEVHLCEVDSPQDLVSLDFPLNVRKGHPLLVAVKILRPDATKNARNDFLKEVKIMSRLKDPNIIRLLGVCVQDDPLCMITDYMENGDLNQFLSAHQLEDKAAEGAPGDGQAAQGPTISYPMLLHVAAQIASGMRYLATLNFVHRDLATRNCLVGENFTIKIADFGMSRNLYAGDYYRVQGRAVLPIRWMAWECILMGKFTTASDVWAFGVTLWEVLMLCRAQPFGQLTDEQVIENAGEFFRDQGRQVYLSRPPACPQGLYELMLRCWSRESEQRPPFSQLHRFLAEDALNTV
  binding: binds
